# Source: the supplement of paper PMC12819154, “High-throughput peptide-centric local stability assay extends protein–ligand identification to membrane proteins, tissues and bacteria” (Nature Structural & Molecular Biology, 2025)
# Chains of the proteins cited; added tags and fusions are not shown. Lines headed by an entry give the natural chain unless they say otherwise; changes in a name come on top.
# UniProt O75113: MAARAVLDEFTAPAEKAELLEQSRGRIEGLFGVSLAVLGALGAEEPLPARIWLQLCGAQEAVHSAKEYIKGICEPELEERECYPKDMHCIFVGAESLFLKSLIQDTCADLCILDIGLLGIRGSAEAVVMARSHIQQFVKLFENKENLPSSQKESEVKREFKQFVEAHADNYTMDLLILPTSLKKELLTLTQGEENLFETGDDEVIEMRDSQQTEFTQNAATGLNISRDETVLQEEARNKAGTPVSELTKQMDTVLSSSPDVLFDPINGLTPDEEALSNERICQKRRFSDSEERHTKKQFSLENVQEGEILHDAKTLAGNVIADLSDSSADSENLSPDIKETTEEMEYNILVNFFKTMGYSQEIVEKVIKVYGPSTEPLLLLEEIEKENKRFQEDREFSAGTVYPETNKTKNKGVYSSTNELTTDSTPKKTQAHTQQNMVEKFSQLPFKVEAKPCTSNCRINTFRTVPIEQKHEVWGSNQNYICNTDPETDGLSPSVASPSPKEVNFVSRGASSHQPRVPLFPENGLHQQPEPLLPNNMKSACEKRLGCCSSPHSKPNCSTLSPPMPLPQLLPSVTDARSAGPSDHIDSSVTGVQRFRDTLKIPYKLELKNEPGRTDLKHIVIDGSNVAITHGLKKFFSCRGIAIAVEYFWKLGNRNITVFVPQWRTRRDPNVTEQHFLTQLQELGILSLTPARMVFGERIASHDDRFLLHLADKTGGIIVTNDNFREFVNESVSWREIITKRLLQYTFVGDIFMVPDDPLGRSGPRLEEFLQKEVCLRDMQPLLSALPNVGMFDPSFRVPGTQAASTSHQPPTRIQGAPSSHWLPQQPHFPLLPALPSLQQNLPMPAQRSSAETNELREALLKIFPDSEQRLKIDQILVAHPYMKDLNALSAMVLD
# UniProt O43175: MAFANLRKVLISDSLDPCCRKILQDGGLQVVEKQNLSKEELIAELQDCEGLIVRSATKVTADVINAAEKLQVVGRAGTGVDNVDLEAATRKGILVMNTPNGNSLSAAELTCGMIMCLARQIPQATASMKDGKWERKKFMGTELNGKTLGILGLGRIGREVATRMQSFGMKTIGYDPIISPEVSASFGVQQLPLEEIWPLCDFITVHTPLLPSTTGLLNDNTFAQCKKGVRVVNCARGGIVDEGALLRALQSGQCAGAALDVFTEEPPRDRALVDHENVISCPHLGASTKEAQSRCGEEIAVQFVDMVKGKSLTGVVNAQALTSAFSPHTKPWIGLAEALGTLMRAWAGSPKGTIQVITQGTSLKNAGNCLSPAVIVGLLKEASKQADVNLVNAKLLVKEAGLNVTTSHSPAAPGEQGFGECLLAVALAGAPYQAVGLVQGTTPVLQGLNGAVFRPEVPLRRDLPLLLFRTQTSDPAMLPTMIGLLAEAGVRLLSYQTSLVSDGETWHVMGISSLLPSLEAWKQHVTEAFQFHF
# UniProt O43156, whole entry: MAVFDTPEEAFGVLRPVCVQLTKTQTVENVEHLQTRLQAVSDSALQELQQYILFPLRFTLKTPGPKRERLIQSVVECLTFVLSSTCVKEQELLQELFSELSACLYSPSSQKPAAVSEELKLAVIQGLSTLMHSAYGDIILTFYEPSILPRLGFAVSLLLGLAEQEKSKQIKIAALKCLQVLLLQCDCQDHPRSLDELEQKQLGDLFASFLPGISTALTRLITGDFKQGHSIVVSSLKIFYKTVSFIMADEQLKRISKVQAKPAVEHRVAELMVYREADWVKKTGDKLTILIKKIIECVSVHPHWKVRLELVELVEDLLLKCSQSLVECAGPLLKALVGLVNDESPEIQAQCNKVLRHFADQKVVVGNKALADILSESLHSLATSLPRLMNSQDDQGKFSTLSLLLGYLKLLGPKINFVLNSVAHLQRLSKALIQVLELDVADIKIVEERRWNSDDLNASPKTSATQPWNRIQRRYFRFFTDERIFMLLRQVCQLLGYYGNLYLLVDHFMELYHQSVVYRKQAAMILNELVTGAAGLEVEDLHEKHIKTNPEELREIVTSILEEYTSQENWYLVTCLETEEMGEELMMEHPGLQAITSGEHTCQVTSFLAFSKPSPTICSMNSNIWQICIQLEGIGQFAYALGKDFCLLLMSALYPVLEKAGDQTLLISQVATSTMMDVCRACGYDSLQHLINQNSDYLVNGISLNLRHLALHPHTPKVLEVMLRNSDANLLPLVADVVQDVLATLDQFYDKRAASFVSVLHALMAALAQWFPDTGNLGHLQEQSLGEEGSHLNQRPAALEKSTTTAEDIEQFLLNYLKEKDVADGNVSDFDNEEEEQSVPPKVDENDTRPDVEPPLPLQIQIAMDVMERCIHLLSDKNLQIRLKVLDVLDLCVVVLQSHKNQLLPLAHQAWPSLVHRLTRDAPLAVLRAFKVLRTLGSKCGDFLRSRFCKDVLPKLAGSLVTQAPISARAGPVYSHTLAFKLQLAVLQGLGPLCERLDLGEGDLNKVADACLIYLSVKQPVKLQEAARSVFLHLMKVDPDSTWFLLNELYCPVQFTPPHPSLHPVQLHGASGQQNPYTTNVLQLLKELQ
# UniProt O43829: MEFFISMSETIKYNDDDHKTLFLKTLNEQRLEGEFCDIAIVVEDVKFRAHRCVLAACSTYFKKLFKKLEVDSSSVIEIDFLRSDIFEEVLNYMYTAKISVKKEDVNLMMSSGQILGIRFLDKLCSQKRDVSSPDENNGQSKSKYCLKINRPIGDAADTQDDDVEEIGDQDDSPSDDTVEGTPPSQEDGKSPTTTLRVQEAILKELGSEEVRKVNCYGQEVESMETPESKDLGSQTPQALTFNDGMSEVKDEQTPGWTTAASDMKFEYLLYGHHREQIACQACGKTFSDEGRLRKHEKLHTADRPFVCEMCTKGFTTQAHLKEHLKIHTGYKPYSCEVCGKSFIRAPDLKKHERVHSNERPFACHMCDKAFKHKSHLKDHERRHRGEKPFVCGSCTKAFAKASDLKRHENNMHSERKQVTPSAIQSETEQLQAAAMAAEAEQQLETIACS
# UniProt O60220: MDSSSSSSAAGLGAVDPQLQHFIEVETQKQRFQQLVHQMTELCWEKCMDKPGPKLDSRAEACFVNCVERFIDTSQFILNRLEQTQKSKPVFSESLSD
# UniProt O75116: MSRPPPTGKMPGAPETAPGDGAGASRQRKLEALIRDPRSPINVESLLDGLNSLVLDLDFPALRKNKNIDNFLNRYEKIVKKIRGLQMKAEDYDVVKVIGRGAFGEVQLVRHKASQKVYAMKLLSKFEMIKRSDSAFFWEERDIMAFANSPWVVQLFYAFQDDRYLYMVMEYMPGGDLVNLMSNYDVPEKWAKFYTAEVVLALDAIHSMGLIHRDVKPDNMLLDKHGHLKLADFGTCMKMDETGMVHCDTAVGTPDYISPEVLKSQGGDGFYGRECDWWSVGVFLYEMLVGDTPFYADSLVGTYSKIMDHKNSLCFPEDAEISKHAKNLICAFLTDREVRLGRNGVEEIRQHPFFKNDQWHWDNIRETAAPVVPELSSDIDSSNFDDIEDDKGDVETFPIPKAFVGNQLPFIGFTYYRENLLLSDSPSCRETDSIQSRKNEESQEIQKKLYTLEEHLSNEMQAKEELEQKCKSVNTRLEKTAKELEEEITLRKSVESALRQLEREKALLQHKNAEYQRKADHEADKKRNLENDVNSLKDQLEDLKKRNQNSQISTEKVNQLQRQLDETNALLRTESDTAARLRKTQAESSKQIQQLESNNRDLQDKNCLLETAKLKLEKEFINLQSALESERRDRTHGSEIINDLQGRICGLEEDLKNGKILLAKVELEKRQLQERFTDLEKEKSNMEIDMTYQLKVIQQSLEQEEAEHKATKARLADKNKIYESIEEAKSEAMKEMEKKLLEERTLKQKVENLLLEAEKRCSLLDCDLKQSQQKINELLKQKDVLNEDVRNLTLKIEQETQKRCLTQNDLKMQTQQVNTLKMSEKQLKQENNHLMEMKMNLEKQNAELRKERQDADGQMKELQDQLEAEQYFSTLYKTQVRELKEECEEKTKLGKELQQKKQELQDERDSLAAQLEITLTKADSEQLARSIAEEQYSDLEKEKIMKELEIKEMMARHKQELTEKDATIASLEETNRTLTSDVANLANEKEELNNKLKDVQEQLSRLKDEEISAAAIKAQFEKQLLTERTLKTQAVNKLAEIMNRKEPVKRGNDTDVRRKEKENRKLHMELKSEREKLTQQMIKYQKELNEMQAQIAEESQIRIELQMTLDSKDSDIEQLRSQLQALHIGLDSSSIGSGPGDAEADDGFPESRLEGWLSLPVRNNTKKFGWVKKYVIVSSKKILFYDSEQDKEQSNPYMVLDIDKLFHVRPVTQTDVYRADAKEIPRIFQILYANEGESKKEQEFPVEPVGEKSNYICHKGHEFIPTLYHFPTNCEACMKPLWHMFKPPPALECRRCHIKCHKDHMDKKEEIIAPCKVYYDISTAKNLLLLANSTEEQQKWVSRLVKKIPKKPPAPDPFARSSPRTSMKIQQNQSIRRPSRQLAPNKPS
# UniProt O43290: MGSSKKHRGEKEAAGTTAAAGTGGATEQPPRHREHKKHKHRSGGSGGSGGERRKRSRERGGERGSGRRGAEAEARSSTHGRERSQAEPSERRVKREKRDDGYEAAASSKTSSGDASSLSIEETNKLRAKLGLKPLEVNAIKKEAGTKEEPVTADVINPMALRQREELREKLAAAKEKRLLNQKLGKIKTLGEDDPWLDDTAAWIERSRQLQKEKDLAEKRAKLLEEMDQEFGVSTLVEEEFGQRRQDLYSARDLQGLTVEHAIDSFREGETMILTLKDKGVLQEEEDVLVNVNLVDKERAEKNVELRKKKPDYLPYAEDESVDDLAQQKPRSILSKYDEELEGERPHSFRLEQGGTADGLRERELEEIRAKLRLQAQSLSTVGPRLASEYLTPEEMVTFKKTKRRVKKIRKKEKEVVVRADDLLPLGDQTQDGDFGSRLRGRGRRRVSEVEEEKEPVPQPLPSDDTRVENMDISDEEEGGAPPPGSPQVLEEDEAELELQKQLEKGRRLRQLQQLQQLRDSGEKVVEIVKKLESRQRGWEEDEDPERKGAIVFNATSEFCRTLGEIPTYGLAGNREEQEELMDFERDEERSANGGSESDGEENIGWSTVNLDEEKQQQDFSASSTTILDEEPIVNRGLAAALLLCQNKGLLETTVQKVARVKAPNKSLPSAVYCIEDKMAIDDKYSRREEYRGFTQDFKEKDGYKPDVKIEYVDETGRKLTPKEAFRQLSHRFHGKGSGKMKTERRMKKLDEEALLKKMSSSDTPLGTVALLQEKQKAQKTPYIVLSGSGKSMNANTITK
# The other results are listed elsewhere or left out. Small differences around the control level are noise.
# Compound: CN[C@@H]1C[C@H]2O[C@@](C)([C@@H]1OC)n1c3ccccc3c3c4c(c5c6ccccc6n2c5c31)C(=O)NC4 [staurosporine]
# Assay: log2 fold change of tryptic peptide abundance, ligand vs vehicle (limited proteolysis) (log2 ratio); higher = more trypsin-susceptible (destabilized)
# Conditions: ligand concentration: 20 uM; sample: K562 cleared lysate; digestion: 4 min, 22 C (HT-PELSA RT4min, Orbitrap Astral)
row,Target,log2 fold change
1,"N4BP1 (peptide sequence: AELLEQSR, peptide start residue: 17) (UniProt O75113)",-0.285
2,"PHGDH (peptide sequence: KVLISDSLDPCCRK, peptide start residue: 8) (UniProt O43175)",-0.229
3,"UniProt O43156 (peptide sequence: TSATQPWNR, peptide start residue: 462)",0.317
4,"UniProt O43829 (peptide sequence: FEYLLYGHHR, peptide start residue: 265)",0.192
5,"KIF1B (peptide sequence: EFSQVHGSVSDCK, peptide start residue: 1596) (UniProt O60333)",-0.327
6,"TIMM8A (peptide sequence: SKPVFSESLSD, peptide start residue: 87) (UniProt O60220)",-0.016
7,"ROCK2 (peptide sequence: LYTLEEHLSNEMQAKEELEQK, peptide start residue: 449) (UniProt O75116)",-0.462
8,"SART1 (peptide sequence: MAIDDKYSR, peptide start residue: 679) (UniProt O43290)",0.323
